The test addresses FLAG-tagged steroidogenic factor-1 (SF-1) (UniProt Q13285). Put plainly: co-IP; KGN cells co-transfected with FLAG-SF-1 and Myc-tagged WT or mutant FOXL2, 24 h; cell lysates immunoprecipitated with anti-FLAG antibody on protein G Dynabeads; immunoblot.

Chains of the proteins cited; added tags and fusions are not shown.
UniProt Q13285: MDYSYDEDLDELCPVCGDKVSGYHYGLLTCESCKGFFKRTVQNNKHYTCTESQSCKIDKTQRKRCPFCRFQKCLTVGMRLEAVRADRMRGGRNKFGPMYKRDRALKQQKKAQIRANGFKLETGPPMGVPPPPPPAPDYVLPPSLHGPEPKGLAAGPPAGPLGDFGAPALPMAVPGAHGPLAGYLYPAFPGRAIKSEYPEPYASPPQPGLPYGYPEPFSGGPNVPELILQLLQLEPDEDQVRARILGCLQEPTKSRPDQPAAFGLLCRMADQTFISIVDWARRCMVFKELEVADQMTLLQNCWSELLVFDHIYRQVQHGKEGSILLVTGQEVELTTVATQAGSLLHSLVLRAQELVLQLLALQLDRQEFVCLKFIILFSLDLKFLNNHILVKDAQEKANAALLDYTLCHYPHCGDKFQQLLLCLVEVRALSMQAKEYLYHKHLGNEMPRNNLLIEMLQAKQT

Results are given in words; binding and its absence hold for the method and conditions named. In cells and extracts the contact can be indirect. Some results given as binding are weak or reduced against the parent protein; the word gives no strength. Tags and fused reporters may be left off the sequences shown.

B1: Myc-tagged wild type FOXL2 (protein, UniProt P58012 1-376)
chain: MMASYPEPEDAAGALLAPETGRTVKEPEGPPPSPGKGGGGGGGTAPEKPDPAQKPPYSYVALIAMAIRESAEKRLTLSGIYQYIIAKFPFYEKNKKGWQNSIRHNLSLNECFIKVPREGGGERKGNYWTLDPACEDMFEKGNYRRRRRMKRPFRPPPAHFQPGKGLFGAGGAAGGCGVAGAGADGYGYLAPPKYLQSGFLNNSWPLPQPPSPMPYASCQMAAAAAAAAAAAAAAGPGSPGAAAVVKGLAGPAASYGPYTRVQSMALPPGVVNSYNGLGGPPAAPPPPPHPHPHPHAHHLHAAAAPPPAPPHHGAAAPPPGQLSPASPATAAPPAPAPTSAPGLQFACARQPELAMMHCSYWDHDSKTGALHSRLDL
Consider B1, for which the binding result is reported as “binds”.

Source of the values: publication PMC4944948.
